PubChem BioAssay AID1259254 – NCATS – 2017

Test: 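Gene knock-downs that lead to re-replication, shown by excess G2 DNA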 (primary screen)
Cells: human HCT116 colorectal cancer cells
Reagent: single siRNA against human genes
Timing: 3 days
Measured: 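Nuclei stained with Hoechst and imaged; cell-cycle phase assigned by DNA content; G2 share scaled per plate, non-targeting siRNA 0%, GMNN siRNA 100%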
Direction: G2 robust z-score and G2 cells, % of GMNN control: higher = more G2 cells, more excess DNA replication; raw share of cells in G2: higher = larger share of cells with G2 DNA content
Active means: 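Active siRNAs have a G2 robust z of 5 or more median absolute deviations over the median, which in these data means about 38% or higher of GMNN control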
In all, the deposit lists about 59,000 reagents; shown is a random part of them. About 1,550 of them (2.6%) were called active. 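G2 share is only a proxy for re-replication; each gene was hit by three separate siRNAs, and active genes were retested.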 Raw values are not corrected between plates. Reagents against one gene are numbered here. Not stated in the record: the amount of reagent.

| gene | siRNA no. | G2 robust z-score | G2 cells, % of GMNN control | raw share of cells in G2 (%) | activity call |
| --- | --- | --- | --- | --- | --- |
| MYL9 (myosin light chain 9) | 1 | -0.158 | 1.86 | 7.21 | inactive |
| MYL9 (myosin light chain 9) | 2 | -0.142 | 1.97 | 4.48 | inactive |
| MYL9 (myosin light chain 9) | 3 | -0.778 | -2.51 | 4.61 | inactive |
| ZNF454 (zinc finger protein 454) | 1 | 2.82 | 22.8 | 10.9 | inactive |
| ZNF454 (zinc finger protein 454) | 2 | 0.326 | 5.26 | 4.99 | inactive |
| ZNF454 (zinc finger protein 454) | 3 | -0.872 | -3.17 | 2.41 | inactive |
| SOWAHD (sosondowah ankyrin repeat domain family member D) | 1 | 1.16 | 11.1 | 7.82 | inactive |
| SOWAHD (sosondowah ankyrin repeat domain family member D) | 2 | -0.619 | -1.39 | 2.65 | inactive |
| SOWAHD (sosondowah ankyrin repeat domain family member D) | 3 | -1.1 | -4.76 | 2.27 | inactive |
| ZACN (zinc activated ion channel) | 1 | 0.174 | 4.19 | 7.71 | inactive |
| ZACN (zinc activated ion channel) | 2 | 1.99 | 16.9 | 11.6 | inactive |
| ZACN (zinc activated ion channel) | 3 | -0.0497 | 2.62 | 5.24 | inactive |
| HIF3A (hypoxia inducible factor 3 subunit alpha) | 1 | 0.197 | 4.35 | 5.81 | inactive |
| HIF3A (hypoxia inducible factor 3 subunit alpha) | 2 | 0.321 | 5.22 | 7.81 | inactive |
| HIF3A (hypoxia inducible factor 3 subunit alpha) | 3 | 2.64 | 21.6 | 12 | inactive |
| MS4A1 (membrane spanning 4-domains A1) | 1 | 0.0764 | 3.5 | 5.3 | inactive |
| MS4A1 (membrane spanning 4-domains A1) | 2 | -0.93 | -3.58 | 3.69 | inactive |
| MS4A1 (membrane spanning 4-domains A1) | 3 | 3.11 | 24.9 | 13.8 | inactive |
| RYK (receptor like tyrosine kinase) | 1 | 1.35 | 12.5 | 9.73 | inactive |
| RYK (receptor like tyrosine kinase) | 2 | -1.43 | -7.09 | 3.02 | inactive |
| RYK (receptor like tyrosine kinase) | 3 | -0.901 | -3.37 | 2.84 | inactive |
| ELK1 (ETS transcription factor ELK1) | 1 | 4.97 | 37.9 | 19 | inactive |
| ELK1 (ETS transcription factor ELK1) | 2 | 0.493 | 6.44 | 7.71 | inactive |
| ELK1 (ETS transcription factor ELK1) | 3 | 0.378 | 5.63 | 5.66 | inactive |
| LRRC4B (leucine rich repeat containing 4B) | 1 | 1.06 | 10.4 | 10.5 | inactive |
| LRRC4B (leucine rich repeat containing 4B) | 2 | 1.62 | 14.3 | 11.1 | inactive |
| LRRC4B (leucine rich repeat containing 4B) | 3 | -0.531 | -0.765 | 4.19 | inactive |
| HES2 (hes family bHLH transcription factor 2) | 1 | 0.817 | 8.72 | 7.46 | inactive |
| HES2 (hes family bHLH transcription factor 2) | 2 | 0.131 | 3.89 | 5.29 | inactive |
| HES2 (hes family bHLH transcription factor 2) | 3 | -0.51 | -0.624 | 5.67 | inactive |
